Reference: patent US6747039B2, “Aza-benzothiopyranoindazoles with antitumor activity” (Albany Molecular Research, Inc., priority 2002, dated 2004)

Each molecule was assayed on HeLa S-3 cells (assay: Inhibition of cell growth (sulforhodamine B) to determine GI50). Conditions: aza-analog versus its carbocyclic congener, HeLa cells; Table 5.
Type: cell-based
Description: Growth inhibition (GI50) values were measured with HeLa S-3 cells selected for growth on plastic. The procedure was based on the protocol of Skehan et al. (Skehan, P., et al., J. Natl. Cancer Inst., 82:1107-1112 (1990), which is hereby incorporated by reference). HeLa cells were plated at 2×10^4 cells/well in 96 well plates. One day later, a control plate was fixed by addition of TCA to 5%. After five rinses with tap water, the plate was air dried and stored at 4° C. Test compounds were added to the remaining plates at 10-fold dilutions between 0.01 and 100 μM. Two days later, all plates were fixed as described above. Cells were then stained by the addition of 100 μl per well of 0.4% sulforhodamine B (SRB) in 1% acetic acid for 30 min at 4° C. Wells were then quickly rinsed 5× with acetic acid (1%) and allowed to air dry. The SRB was then solubilized by the addition of 100 μl per well of unbuffered 10 mM Tris base. Dye was quantified by measuring absorbance at 490 nm on a Molecular Devices kinetic microplate reader. Growth at each inhibitor concentration relative to the untreated control was calculated according to the following equation: percent growth=100×(T−To)/(C−To), where T was the average optical density (OD) of the test wells after 2 days of treatment, To was the average OD of the wells in the control plate on day 0 and C was the average OD of untreated wells. Plots of percent growth versus inhibitor concentration were used to determine the GI50.
The data below shown in Table 4 summarizes the in vitro cyclin/cdk inhibition constants (IC50) of HeLa Cells for the compounds of the current invention.

| Structure (SMILES) | Fold Improvement |
| --- | --- |
| CCN(CC)CCNc1cccc2sc3ccncc3c(=O)c12 | 3.5 |
| CCN(CC)CCNc1ccc(CNC=O)c2sc3ccncc3c(=O)c12 | 3 |
| CCN(CC)CCNc1ccc(CN)c2sc3ccncc3c(=O)c12 | 1 |
| CCN(CC)CCNc1ccc(CNS(C)(=O)=O)c2sc3ccncc3c(=O)c12 | 7.5 |
| CCN(CC)CCNc1ccc(CNC(=O)OC)c2sc3ccncc3c(=O)c12 | 10 |
| CCN(CC)CCn1nc2c3c(cccc31)Sc1ccncc1-2 | 9 |
| CCN(CC)CCn1nc2c3c(c(CN)ccc31)Sc1ccncc1-2 [drawing 112] | 5 |
| CCN(CC)CCn1nc2c3c(c(CNC=O)ccc31)Sc1ccncc1-2 [drawing 114] | 5 |
| CCN(CC)CCn1nc2c3c(c(CNC(=O)OC)ccc31)Sc1ccncc1-2 [drawing 116] | 30 |
| CCN(CC)CCn1nc2c3c(c(CNS(C)(=O)=O)ccc31)Sc1ccncc1-2 [drawing 118] | 3 |
| CCN(CC)CCn1nc2c3c(c(CNC(=O)OC)ccc31)Sc1ncccc1-2 [drawing 120] | 6 |
| CCN(CC)CCn1nc2c3c(c(CNS(C)(=O)=O)ccc31)Sc1ncccc1-2 [drawing 122] | 3 |
| CCN(CC)CCn1nc2c3c(c(CN)ccc31)Sc1ncccc1-2 [drawing 124] | 5 |
| CCN(CC)CCn1nc2c3c(c(CNC=O)ccc31)Sc1ncccc1-2 [drawing 126] | 2 |

Same assay, conditions: ratio of GI50 of second compound to first compound of pair (nitrogen position); Table 6

| Structure (SMILES) | Folds |
| --- | --- |
| CCN(CC)CCn1nc2c3c(c(C)ccc31)Sc1ccncc1-2 | 6 |
| CCN(CC)CCNc1ccc(C)c2sc3ccncc3c(=O)c12 | 7.5 |
| CCN(CC)CCn1nc2c3c(c(CN)ccc31)Sc1ccncc1-2 [drawing 127] | 1 |
| CCN(CC)CCn1nc2c3c(c(CNC=O)ccc31)Sc1ccncc1-2 [drawing 129] | 10 |
| CCN(CC)CCn1nc2c3c(c(CNC(=O)OC)ccc31)Sc1ccncc1-2 [drawing 131] | 5 |
| CCN(CC)CCn1nc2c3c(c(CNS(C)(=O)=O)ccc31)Sc1ccncc1-2 [drawing 133] | 1.5 |
